From US20250101100A1
Results are given in words; binding and its absence hold for the method and conditions named. Some entries that bind do so weakly or less than the wild type.

By UniProt entry, the sequences of proteins in these tests, tags left out. Where a name states a change or a piece, a line headed by the entry shows the natural chain unless it says otherwise.
UniProt P26715: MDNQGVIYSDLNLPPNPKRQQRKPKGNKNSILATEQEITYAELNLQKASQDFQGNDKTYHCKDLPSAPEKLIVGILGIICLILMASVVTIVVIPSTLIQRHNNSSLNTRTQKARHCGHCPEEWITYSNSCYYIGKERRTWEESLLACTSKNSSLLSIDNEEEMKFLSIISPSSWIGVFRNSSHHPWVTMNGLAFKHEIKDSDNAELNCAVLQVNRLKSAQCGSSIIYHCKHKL
UniProt P26717: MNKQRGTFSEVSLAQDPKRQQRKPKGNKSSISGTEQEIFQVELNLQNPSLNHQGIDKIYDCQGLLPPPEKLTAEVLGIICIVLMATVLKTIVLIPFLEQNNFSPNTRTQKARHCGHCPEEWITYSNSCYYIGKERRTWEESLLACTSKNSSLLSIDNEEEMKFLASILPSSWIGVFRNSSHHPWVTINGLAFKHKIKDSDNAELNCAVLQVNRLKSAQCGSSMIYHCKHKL

Experiments:
[1] = molecular target: human NKG2A on cells (human) (UniProt P26715); assay: flow cytometry on CHO cells expressing human NKG2A
[2] = molecular target: human NKG2A on cells (human) (UniProt P26715); assay: flow cytometry, HLA-E pentamer blocking on CHO cells expressing human NKG2A
[3] = molecular target: human NKG2C on CHO cells (human) (UniProt P26717); assay: flow cytometry, binding to CHO cells expressing human NKG2C, anti-human IgG-PE

Measured: binding

B1: 11H9.A1 antibody (antibody, human IgG1, kappa, V domains shown)
VH: EVQLVESGGGLVKPGGSLRLSCAASGFTFSSYSMNWVRQAPGKGLEWVSSISSSSSYIYYADSVKGRFTISRDNAKNSLYLQMNSLRAEDTAVYYCARLLWFGEIFDYWGQGTLVTVSS
VL: AIQLTQSPSSLSASVGDRVTITCRASQGISSALAWYQQKPGKAPKLLIYDASSLKSGVPSRFSGSGSGTDFTLTISSLQPEDFATYYCQQFNSYPITFGQGTRLEIKR
binds: all assays above
